This is one part of the list. These are further read-outs of the screen, such as a control signal, another cell line or another target. No call is given for them. Compounds called inactive in the main read-out are mostly missing here. The note in brackets gives the kind of curve behind each potency; many fits are weak.
Test: qHTS Assay for Lipid Storage Modulators in Drosophila S3 Cells;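 as to cell number change: cells counted by Cell Tracker Red CMTPX staining in the red channel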
Details: BODIPY lipid droplet fluorescence, 18-24 h; for cell number change: measured here: cell count max response, cells fed with added oleic acid
In short: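 Drosophila S3 cells got compounds at several concentrations plus oleic acid (400 uM solution). Laser-scanning cytometry with 488 nm excitation read lipid droplets at 500-530 nm and cells at 575-640 nm. Percent activity was relative to 20 uM Triacsin C.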

[1] = measured here: cell number channel AC50, cells fed with added oleic acid
[2] = measured here: lipid fluorescence (Fed channel) AC50, cells fed with added oleic acid

SMILES | cell number change | AC50 [1] | AC50 [2]
CCCCn1c(SCC(=O)Nc2ccc(OC)cc2)nc2ccc(N3CCOCC3)cc2c1=O | 116% | 6.51 µM [rising, partial curve, poor fit] | 0.461 µM [rising, full curve, poor fit]
CC(=O)Nc1ccc(NC(=O)C(=O)NCC(c2ccco2)N2CCc3ccccc3C2)cc1 (centres undefined) | -39.4% | 29.1 µM [falling, single point] | 3.26 µM [falling, partial curve, poor fit]
CCOC(=O)Nc1sc(C(=O)N(CC)CC)c(C)c1C(=O)OCC | – | 3.26 µM [rising, partial curve] | 0.206 µM [rising, full curve, poor fit]
C/C(=N\Oc1cccc(F)n1)c1ccc(Cl)cc1Cl | 27.9% | – | 0.58 µM [falling, partial curve, poor fit]
NS(=O)(=O)c1ccc(NC(=O)COC(=O)COc2ccc3ccccc3c2)cc1 | 12.5% | – | 32.6 µM [falling, partial curve, poor fit]
CCOc1cccc(C(=O)Nc2nnc(-c3ccco3)s2)c1 | -80.4% | 1.84 µM [falling, partial curve] | 20.6 µM [falling, single point]
CCOC(=O)N1CCC(n2c(=S)[nH]c3cc(OC)c(OC)cc3c2=O)CC1 | 9.23% | – | –
COc1ccc(NC(=O)c2ccc(Cl)c(S(=O)(=O)N3CCc4ccccc4C3)c2)cn1 | -72.2% | – | –
Cn1c(NC(=O)c2ccccc2NC(=O)C(C)(C)C)nc2ccccc21 | – | 2.06 µM [rising, partial curve] | 0.82 µM [rising, full curve, poor fit]
CC(=O)N1CCN(c2ccc(C(N)=O)cc2[N+](=O)[O-])CC1 | -14.9% | – | –
Cc1cc(C(=O)N2CCc3ccccc3C2)n[nH]1 | -12.6% | – | 32.6 µM [rising, partial curve, poor fit]
CC[C@H]1c2[nH]c3ccccc3c2C[C@H]2C(=O)N(c3ccc(F)cc3)C(=O)N21 | – | – | 0.206 µM [rising, full curve, poor fit]
COc1cc(OC)c(OC)cc1CN1CCCC(C(=O)c2ccc3c(c2)OCO3)C1 (centres undefined) | -6.06% | – | 6.51 µM [falling, single point]
Cc1cccnc1NC(=S)Nc1ccc(F)cc1F | -7.97% | – | 3.26 µM [falling, single point]
O=C(c1cc(-c2ccc(O)cc2)on1)N1CCN(c2ccccc2)CC1 | 6.76% | – | 6.51 µM [rising, single point]

Part of the list above in order of length of the SMILES, descending.
SMILES | cell number change | AC50 [1] | AC50 [2]
CCOC(=O)N1CCC(n2c(=S)[nH]c3cc(OC)c(OC)cc3c2=O)CC1 | 9.23% | – | –
CCOC(=O)Nc1sc(C(=O)N(CC)CC)c(C)c1C(=O)OCC | – | 3.26 µM [rising, partial curve] | 0.206 µM [rising, full curve, poor fit]
Cc1cccnc1NC(=S)Nc1ccc(F)cc1F | -7.97% | – | 3.26 µM [falling, single point]

— PubChem BioAssay AID2685 (National Center for Advancing Translational Sciences (NCATS), 2010)
